Reference: paper doi:10.1101/2020.12.28.423414

Amino acid sequences for entries named in this document (tags omitted).
UniProt Q9FIJ0: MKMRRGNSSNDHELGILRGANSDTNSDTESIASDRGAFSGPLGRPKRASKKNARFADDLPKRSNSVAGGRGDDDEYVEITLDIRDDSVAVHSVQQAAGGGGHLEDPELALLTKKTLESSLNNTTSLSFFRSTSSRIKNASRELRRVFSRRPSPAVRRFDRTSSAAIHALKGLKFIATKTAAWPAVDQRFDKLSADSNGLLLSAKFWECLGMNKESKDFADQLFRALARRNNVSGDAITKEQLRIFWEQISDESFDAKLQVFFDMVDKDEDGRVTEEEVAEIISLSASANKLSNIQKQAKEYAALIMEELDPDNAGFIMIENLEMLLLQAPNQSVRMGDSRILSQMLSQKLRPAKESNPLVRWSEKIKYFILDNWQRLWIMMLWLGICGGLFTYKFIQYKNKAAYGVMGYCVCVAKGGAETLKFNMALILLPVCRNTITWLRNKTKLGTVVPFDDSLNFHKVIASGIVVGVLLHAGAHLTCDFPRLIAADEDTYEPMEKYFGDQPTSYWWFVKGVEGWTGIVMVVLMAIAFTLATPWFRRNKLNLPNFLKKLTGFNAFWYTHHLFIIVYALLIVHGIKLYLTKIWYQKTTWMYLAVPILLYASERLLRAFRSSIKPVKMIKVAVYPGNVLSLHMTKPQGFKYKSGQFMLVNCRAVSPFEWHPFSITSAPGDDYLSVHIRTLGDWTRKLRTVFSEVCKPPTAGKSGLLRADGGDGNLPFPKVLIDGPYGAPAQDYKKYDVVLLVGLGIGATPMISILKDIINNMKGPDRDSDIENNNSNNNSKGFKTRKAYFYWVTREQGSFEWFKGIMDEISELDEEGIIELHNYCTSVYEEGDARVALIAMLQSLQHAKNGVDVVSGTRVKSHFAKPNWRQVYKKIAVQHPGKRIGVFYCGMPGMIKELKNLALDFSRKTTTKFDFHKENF

These binders were tested against 3×FLAG-tagged RBOHD (RESPIRATORY BURST OXIDASE HOMOLOG D) (Arabidopsis thaliana) (UniProt Q9FIJ0) (assay: affinity purification with mass spectrometry).

| Binder | binding |
| --- | --- |
| BAK1 (receptor, UniProt Q94F62 26-615) NAEGDALSALKNSLADPNKVLQSWDATLVTPCTWFHVTCNSDNSVTRVDLGNANLSGQLVMQLGQLPNLQYLELYSNNITGTIPEQLGNLTELVSLDLYLNNLSGPIPSTLGRLKKLRFLRLNNNSLSGEIPRSLTAVLTLQVLDLSNNPLTGDIPVNGSFSLFTPISFANTKLTPLPASPPPPISPTPPSPAGSNRITGAIAGGVAAGAALLFAVPAIALAWWRRKKPQDHFFDVPAEEDPEVHLGQLKRFSLRELQVASDNFSNKNILGRGGFGKVYKGRLADGTLVAVKRLKEERTQGGELQFQTEVEMISMAVHRNLLRLRGFCMTPTERLLVYPYMANGSVASCLRERPESQPPLDWPKRQRIALGSARGLAYLHDHCDPKIIHRDVKAANILLDEEFEAVVGDFGLAKLMDYKDTHVTTAVRGTIGHIAPEYLSTGKSSEKTDVFGYGVMLLELITGQRAFDLARLANDDDVMLLDWVKGLLKEKKLEALVDVDLQGNYKDEEVEQLIQVALLCTQSSPMERPKMSEVVRMLEGDGLAERWEEWQKEEMFRQDFNYPTHHPAVSGWIIGDSTSQIENEYPSGPR | binds |
| plasma membrane calcium ATPase ACA10 (enzyme, UniProt Q9SZR1 1-1069) MSGQFNNSPRGEDKDVEAGTSSFTEYEDSPFDIASTKNAPVERLRRWRQAALVLNASRRFRYTLDLKREEDKKQMLRKMRAHAQAIRAAHLFKAAASRVTGIASPLPTPGGGDFGIGQEQIVSISRDQNIGALQELGGVRGLSDLLKTNLEKGIHGDDDDILKRKSAFGSNTYPQKKGRSFWRFVWEASQDLTLIILIVAAVASLALGIKTEGIEKGWYDGISIAFAVLLVIVVTATSDYRQSLQFQNLNEEKRNIRLEVTRDGRRVEISIYDIVVGDVIPLNIGDQVPADGVLVAGHSLAVDESSMTGESKIVQKNSTKHPFLMSGCKVADGNGTMLVTGVGVNTEWGLLMASVSEDNGGETPLQVRLNGVATFIGIVGLTVAGVVLFVLVVRYFTGHTKNEQGGPQFIGGKTKFEHVLDDLVEIFTVAVTIVVVAVPEGLPLAVTLTLAYSMRKMMADKALVRRLSACETMGSATTICSDKTGTLTLNEMTVVECYAGLQKMDSPDSSSKLPSAFTSILVEGIAHNTTGSVFRSESGEIQVSGSPTERAILNWAIKLGMDFDALKSESSAVQFFPFNSEKKRGGVAVKSPDSSVHIHWKGAAEIVLGSCTHYMDESESFVDMSEDKMGGLKDAIDDMAARSLRCVAIAFRTFEADKIPTDEEQLSRWELPEDDLILLAIVGIKDPCRPGVKNSVLLCQQAGVKVRMVTGDNIQTAKAIALECGILASDSDASEPNLIEGKVFRSYSEEERDRICEEISVMGRSSPNDKLLLVQSLKRRGHVVAVTGDGTNDAPALHEADIGLAMGIQGTEVAKEKSDIIILDDNFESVVKVVRWGRSVYANIQKFIQFQLTVNVAALVINVVAAISAGEVPLTAVQLLWVNLIMDTLGALALATEPPTDHLMDRAPVGRREPLITNIMWRNLFIQAMYQVTVLLILNFRGISILHLKSKPNAERVKNTVIFNAFVICQVFNEFNARKPDEINIFRGVLRNHLFVGIISITIVLQVVIVEFLGTFASTTKLDWEMWLVCIGIGSISWPLAVIGKLIPVPETPVSQYFRINRWRRNSSG | binds |
| lipase/lipoxygenase plat domain protein 2 (AT2G22170) (protein, UniProt Q9SIE7 26-183) DDEADCVYTFFLRTGSTFKAGTDSIISARVYDKYGDYIGIRNLEAWGGLMGPGYNYYERGNLDIFSGKAPCLPSPVCSLNLTSDGSGDHHGWYVNYVEVTTAGVHAKCSYQSFDVEQWLASDTSPYELSAVRNNCPVSLRESVGRVGSEIRKTLSWIV | binds |
| IOS1 (receptor, UniProt Q9C8I6 24-894) QDQSGFISLDCGSPRETSFREKTTNITYISDANFINTGVGGSIKQGYRTQFQQQTWNLRSFPQGIRNCYTLNLTIGDEYLIRANFLHGGYDDKPSTQFELYLGPNLWSTVTTTNETEASIFEMIHILTTDRLQICLVKTGNATPFISALELRKLMNTTYLTRQGSLQTFIRADVGATVNQGYRYGIDVFDRVWTPYNFGNWSQISTNQSVNINNDYQPPEIAMVTASVPTDPDAAMNISLVGVERTVQFYVFMHFAEIQELKSNDTREFNIMYNNKHIYGPFRPLNFTTSSVFTPTEVVADANGQYIFSLQRTGNSTLPPLLNAMEIYSVNLLPQQETDRKEVDAMMNIKSAYGVNKIDWEGDPCVPLDYKWSGVNCTYVDNETPKIISLDLSTSGLTGEILEFISDLTSLEVLDLSNNSLTGSVPEFLANMETLKLINLSGNELNGSIPATLLDKERRGSITLSIEGNTGLCSSTSCATTKKKKKNTVIAPVAASLVSVFLIGAGIVTFLILKRKKRTKLGLNPNSGTGTTPLHSRSHHGFEPPVIAKNRKLTYIDVVKITNNFERVLGRGGFGVVYYGVLNNEPVAVKMLTESTALGYKQFKAEVELLLRVHHKDLTCLVGYCEEGDKMSLIYEFMANGDLKEHLSGKRGPSILTWEGRLRIAAESAQGLEYLHNGCKPQIVHRDIKTTNILLNEKFQAKLADFGLSRSFPLGTETHVSTIVAGTPGYLDPEYYRTNWLTEKSDVFSFGVVLLELVTNQPVIDMKREKSHIAEWVGLMLSRGDINSIVDPKLQGDFDPNTIWKVVETAMTCLNPSSSRRPTMTQVVMDLKECLNMEMARNMGSRMTDSTNDSSIELSMNFTTELNPGAR | binds |
| N-TERMINAL-TRANSMEMBRANE C2 DOMAIN PROTEINS TYPE 4/Ca2+-… LIPID-BINDING PROTEIN 1/SYNAPTOTAGMIN 7 (AT3G61050) (protein, UniProt Q9LEX1 1-510) MGLISGILFGIIFGVALMAGWSRMMTHRSSKRVAKAVDMKLLGSLSRDDLKKICGDNFPQWISFPAFEQVKWLNKLLSKMWPYIAEAATMVIRDSVEPLLEDYRPPGITSLKFSKLTLGNVAPKIEGIRVQSFKEGQVTMDVDLRWGGDPNIVLGVTALVASIPIQLKDLQVFTVARVIFQLADEIPCISAVVVALLAEPKPRIDYTLKAVGGSLTAIPGLSDMIDDTVDTIVKDMLQWPHRIVVPIGGIPVDLSDLELKPQGKLIVTVVKATNLKNKELIGKSDPYATIYIRPVFKYKTKAIENNLNPVWDQTFELIAEDKETQSLTVEVFDKDVGQDERLGLVKLPLSSLEAGVTKELELNLLSSLDTLKVKDKKDRGSITLKVHYHEFNKEEQMAALEDEKKIMEERKRLKEAGVIGSTMDAVGMVGSGLGAGVGMVGTGIGTGVGLVGSGVSSGVGMVGSGFGAVGSGLSKAGRFMGRTITGQSSKRSGSSTPVNTVPENDGAKQQ | binds |

Further lines, results first:

| binding | Binder |
| --- | --- |
| binds | AP4M (protein, UniProt Q9SB50 1-451) MMISQFFVLSQRGDNIVFRDYRAEVPKGSTETFFRKVKFWKEDGNAEAPPIFNVDGVNYFHVKVVGLYFVATTRVNVSPSLVLELLQRIARVIKDYLGVLNEDSFRKNFVLVYELLDEVIDFGYVQTTSTEVLKSYIFNEPIVVSPARLQPIDPAAIFTQGAKRMPGTAVTKSVVANDPGGRRREEIFVDIIEKISVTFSSSGYILTSEIDGTIQMKSYLSGNPEIRLALNEDLNIGRGGRSVYDYRSSSGSGVILDDCNFHESVRLDSFDSDRTLSLVPPDGEFPVMNYRMTQEFKPPFHVNTLIEEAGRLKAEVIIKIRAEFPSDIIANTITVQMPLPNYTSRASFELEPGAAGQRTDFKESNKMLEWNLKKIVGGGEHTLRAKLTFSQEFHGNITKEAGPVSMTFTIPMYNVSKLQVKYLQIAKKSSSYNPYRWVRYVTQANSYVARI |
| binds | HAP13 (protein, UniProt O22715 1-428) MAGAASALFLLDIKGRVLVWRDYRGDVSAAQAERFFTKLIEKEGDSQSNDPVAYDNGVTYMFVQHSNVYLMIASRQNCNAASLLFFLHRVVDVFKHYFEELEEESLRDNFVVVYELLDEMMDFGYPQYTEARILSEFIKTDAYRMEVTQRPPMAVTNAVSWRSEGIQYKKNEVFLDVIENVNILVNSNGQIVRSDVVGALKMRTYLTGMPECKLGLNDRVLLEAQGRATKGKAIDLEDIKFHQCVRLARFENDRTISFIPPDGAFDLMTYRLSTQVKPLIWVEAQIESHSRSRVEMLIKARSQFKERSTATNVEIELPVPTDASNPTVRTSLGSASYAPEKDALVWKIKSFPGNKEYMLRAEFHLPSITAEEATPERKAPIRVKFEIPYFTVSGIQVRYLKIIEKSGYQALPWVRYITMAGEYELRLV |
| binds | an LRR-RK (AT3G02880) (receptor, UniProt Q9M8T0 24-627) SDLESDRRALLAVRNSVRGRPLLWNMSASSPCNWHGVHCDAGRVTALRLPGSGLFGSLPIGGIGNLTQLKTLSLRFNSLSGPIPSDFSNLVLLRYLYLQGNAFSGEIPSLLFTLPSIIRINLGENKFSGRIPDNVNSATRLVTLYLERNQLSGPIPEITLPLQQFNVSSNQLNGSIPSSLSSWPRTAFEGNTLCGKPLDTCEAESPNGGDAGGPNTPPEKKDSDKLSAGAIVGIVIGCVVGLLLLLLILFCLCRKRKKEENVPSRNVEAPVAAATSSAAIPKETVVVVPPAKATGSESGAVNKDLTFFVKSFGEFDLDGLLKASAEVLGKGTVGSSYKASFEHGLVVAVKRLRDVVVPEKEFRERLHVLGSMSHANLVTLIAYYFSRDEKLLVFEYMSKGSLSAILHGNKGNGRTPLNWETRAGIALGAARAISYLHSRDGTTSHGNIKSSNILLSDSYEAKVSDYGLAPIISSTSAPNRIDGYRAPEITDARKISQKADVYSFGVLILELLTGKSPTHQQLNEEGVDLPRWVQSVTEQQTPSDVLDPELTRYQPEGNENIIRLLKIGMSCTAQFPDSRPSMAEVTRLIEEVSHSSGSPNPVSD |
| binds | cysteine-rich RK 2 (CRK2) (receptor, UniProt Q9CAL3 30-649) DARARAVKVTCSPLLEHNETAYVPNFVATMEKISTQVQTSGFGVALTGTGPDANYGLAQCYGDLPLNDCVLCYAEARTMLPQCYPQNGGRIFLDGCFMRAENYSFYNEYKGPEDSIVCGNTTRKNKTFGDAVRQGLRNAVTEASGTGGYARASAKAGESESESAFVLANCWRTLSPDSCKQCLENASASVVKGCLPWSEGRALHTGCFLRYSDQDFLNKIPRNGRSRGSVVVIVVSVLSSVVVFMIGVAVSVYICKRRTIKRKRRGSKDVEKMAKTLKDSSLNFKYSTLEKATGSFDNANKLGQGGFGTVYKGVLPDGRDIAVKRLFFNNRHRATDFYNEVNMISTVEHKNLVRLLGCSCSGPESLLVYEYLQNKSLDRFIFDVNRGKTLDWQRRYTIIVGTAEGLVYLHEQSSVKIIHRDIKASNILLDSKLQAKIADFGLARSFQDDKSHISTAIAGTLGYMAPEYLAHGQLTEMVDVYSFGVLVLEIVTGKQNTKSKMSDYSDSLITEAWKHFQSGELEKIYDPNLDWKSQYDSHIIKKEIARVVQIGLLCTQEIPSLRPPMSKLLHMLKNKEEVLPLPSNPPFMDERVMELRDGSDGDSAGCASLATVSQSSFYGR |
| binds | cyclic nucleotide-gated ion channel CNGC2 (protein, UniProt O65718 1-726) MPSHPNFIFRWIGLFSDKFRRQTTGIDENSNLQINGGDSSSSGSDETPVLSSVECYACTQVGVPAFHSTSCDQAHAPEWRASAGSSLVPIQEGSVPNPARTRFRRLKGPFGEVLDPRSKRVQRWNRALLLARGMALAVDPLFFYALSIGRTTGPACLYMDGAFAAVVTVLRTCLDAVHLWHVWLQFRLAYVSRESLVVGCGKLVWDPRAIASHYARSLTGFWFDVIVILPVPQAVFWLVVPKLIREEKVKLIMTILLLIFLFQFLPKIYHCICLMRRMQKVTGYIFGTIWWGFALNLIAYFIASHVAGGCWYVLAIQRVASCIRQQCMRTGNCNLSLACKEEVCYQFVSPTSTVGYPCLSGNLTSVVNKPMCLDSNGPFRYGIYRWALPVISSNSLAVKILYPIFWGLMTLSTFANDLEPTSNWLEVIFSIVMVLSGLLLFTLLIGNIQVFLHAVMAKKRKMQIRCRDMEWWMKRRQLPSRLRQRVRRFERQRWNALGGEDELELIHDLPPGLRRDIKRYLCFDLINKVPLFRGMDDLILDNICDRAKPRVFSKDEKIIREGDPVQRMIFIMRGRVKRIQSLSKGVLATSTLEPGGYLGDELLSWCLRRPFLDRLPPSSATFVCLENIEAFSLGSEDLRYITDHFRYKFANERLKRTARYYSSNWRTWAAVNIQMAWRRRRKRTRGENIGGSMSPVSENSIEGNSERRLLQYAAMFMSIRPHDHLE |

Results are given in words; binding and its absence hold for the method and conditions named. In cells and extracts the contact can be indirect. Here binding means that the protein was enriched with, or labelled near, the bait; the list need not be complete. Sequences can lack the tags named with a protein.
